Measured values from publication PMC12431657, “Discovery and mechanistic insights of dibenzoylmethane as a broad spectrum inhibitor of coronavirus” (PLOS Pathogens, 2025).
Structures can show the parent of a compound that is named as a salt. Where two headings read alike, the source gives them in different places. In all, about 3,300 compounds went through this assay and about 95 (3%) showed an effect of 50% or more. The list shows a part of the results.

Tested on: HCoV-229E
Parameters: species or system Huh-7; HTS, protection from HCoV-229E induced cell death, luminescent cell viability (CellCounting-Lite 2.0), inhibition rate
Conditions: 24 h post infection, 1 h compound pre-incubation, 10 µM, inhibitor

SMILES	229E Inhibition rate	229E Inhibition rate (229E Inhibition rate, 24 h)
CCC/C=C1\OC(=O)C2=C1CCC=C2 [(Z)-Ligustilide]	17.8%	–
CC(C)=CCC/C(C)=C/COc1c2ccoc2cc2oc(=O)ccc12 [Bergamottin]	4.6%	–
Nc1nc2c(ncn2[C@H]2C[C@H](O)[C@@H](CO)O2)c(=O)[nH]1 [2'-Deoxyguanosine]	–	7.2%
OC[C@H]1OC(O)[C@H](O)[C@H](O)[C@@H]1O (stereo partly drawn) [D-Allose]	0%	–
COC(=O)C1=CO[C@@H](O[C@@H]2O[C@H](CO)[C@@H](O)[C@H](O)[C@H]2O)[C@@H]2[C@H](C)O[C@@H](O)C[C@H]12 [Morroniside]	10%	–
O=C1c2c(O)cc(O)cc2O[C@H](c2ccc(O)cc2)[C@H]1O [Dihydrokaempferol]	9.9%	–
COc1cc(O)c2c(=O)c(O)c(-c3ccc(O)c(O)c3)oc2c1 [Rhamnetin]	23.8%	–
CCCCC(C)CCC(=O)O (stereo not shown) [4-Methyloctanoic acid]	20.3%	–
CC(=O)N[C@@H](CCC(N)=O)C(=O)O [Aceglutamide]	11.5%	–
O=C1CCCCC1=O [1,2-Cyclohexanedione]	20.8%	–
O=Cc1ccc(O)c(O)c1 [Protocatechualdehyde]	10.5%	–
OC[C@@H](O)C(O)[C@H](O)CO [D-Arabitol]	46.4%	–
N[C@@H](CCC(=O)N[C@@H](CS)C(=O)O)C(=O)O [Gamma-glutamylcysteine]	25.4%	–
COc1cc2c(cc1O)C[C@H]1c3c(cc(O)c(OC)c3-2)CCN1C [Boldine]	13.1%	–
Cn1c(=O)c2c(ncn2CC(=O)O)n(C)c1=O [Acefylline]	13%	–
O=C1O[C@H](CO)[C@@H](O)[C@H](O)[C@H]1O [D-(+)-Glucono-1,5-lactone]	14.2%	–
CC(=O)N[C@@H](CC(=O)O)C(=O)O [N-Acetyl-L-aspartic acid]	0%	–
C=C(C)[C@@H]1CC[C@]2(C)CC[C@]3(C)[C@H](CC[C@@H]4[C@@]5(C)CCC(=O)C(C)(C)[C@@H]5CC[C@]43C)[C@@H]12 [Lupenone]	9.9%	–
O=C(CO)CO [1,3-Dihydroxyacetone]	35.5%	–
COc1cc2c(c(OC)c1OC)-c1c(cc3c(c1OC)OCO3)C[C@H](C)[C@@](C)(O)C2 [Schisandrol B]	7.8%	–
CC(=O)c1ccc(O)cc1C [4′-Hydroxy-2′-methylacetophenone]	10.9%	–

Entries listed so far that have an aryl methoxy group:
SMILES	229E Inhibition rate	229E Inhibition rate (229E Inhibition rate, 24 h)
COc1cc(O)c2c(=O)c(O)c(-c3ccc(O)c(O)c3)oc2c1 [Rhamnetin]	23.8%	–
COc1cc2c(cc1O)C[C@H]1c3c(cc(O)c(OC)c3-2)CCN1C [Boldine]	13.1%	–
COc1cc2c(c(OC)c1OC)-c1c(cc3c(c1OC)OCO3)C[C@H](C)[C@@](C)(O)C2 [Schisandrol B]	7.8%	–

Following part.

SMILES	229E Inhibition rate	229E Inhibition rate (229E Inhibition rate, 24 h)
CN1[C@H]2C[C@H](OC(=O)[C@H](CO)c3ccccc3)C[C@@H]1[C@@H](O)C2 [Anisodamine (hydrobromide)]	–	5.4%
O=c1cccccc1 [Tropone]	6.6%	–
Cc1ncc(C[n+]2csc(CCO)c2C)c(N)n1 [Thiamine monochloride]	–	10.3%
C[C@H](CC[C@@H](O[C@@H]1O[C@H](CO)[C@@H](O)[C@H](O)[C@H]1O[C@@H]1O[C@H](CO)[C@@H](O)[C@H](O)[C@H]1O)C(C)(C)O)[C@H]1CC[C@@]2(C)[C@@H]3CC=C4[C@@H](CC[C@H](O[C@@H]5O[C@H](CO)[C@@H](O)[C@H](O)[C@H]5O)C4(C)C)[C@]3(C)[C@H](O)C[C@]12C [Mogroside III-E]	20.6%	–
CC(C)(S)[C@@H](N)C(=O)O [Penicillamine]	11.1%	–
C[C@H]1CC[C@]2(NC1)O[C@H]1C[C@H]3[C@@H]4CC[C@H]5C[C@@H](O[C@@H]6O[C@H](CO)[C@H](O[C@@H]7O[C@H](CO)[C@@H](O)[C@H](O[C@@H]8OC[C@@H](O)[C@H](O)[C@H]8O)[C@H]7O[C@@H]7O[C@H](CO)[C@@H](O)[C@H](O)[C@H]7O)[C@H](O)[C@H]6O)CC[C@]5(C)[C@H]4CC[C@]3(C)[C@H]1[C@@H]2C [Tomatine]	11.4%	–
O=c1ccc2ccc(O)c(O)c2o1 [Daphnetin]	22.3%	–
COc1ccc([C@H]2OC[C@H]3[C@@H]2CO[C@@H]3c2ccc(OC)c(OC)c2)cc1OC [Pinoresinol dimethyl ether]	–	18%
CC(=O)NCCc1c[nH]c2ccc(O)cc12 [N-Acetyl-5-hydroxytryptamine]	0%	–
CN(C)c1nc2c(ncn2[C@@H]2O[C@H](CO)[C@@H](O)[C@H]2O)c(=O)[nH]1 [N2,N2-Dimethylguanosine]	18.2%	–
COc1c(O[C@@H]2O[C@H](CO[C@@H]3OC[C@@H](O)[C@H](O)[C@H]3O)[C@@H](O)[C@H](O)[C@H]2O)cc2occ(-c3ccc(O)cc3)c(=O)c2c1O [Tectorigenin 7-O-Xylosyl Glucoside]	13.2%	–
O=c1c(O)c(-c2ccc(O[C@@H]3O[C@H](CO)[C@@H](O)[C@H](O)[C@H]3O)c(O)c2)oc2cc(O)cc(O)c12 [Spiraeoside]	32.6%	–
O=C1O[C@H]2[C@@H]3OC(=O)c4cc(O)c(O)c(O)c4-c4c(O)c(O)c5oc(=O)c6c(c(O)c(O)c7oc(=O)c4c5c76)-c4c(cc(O)c(O)c4O)C(=O)OC[C@H]3OC(O)[C@@H]2OC(=O)c2cc(O)c(O)c(O)c2-c2c1cc(O)c(O)c2O (mixture of isomers) [Punicalagin]	13.6%	–
OCC1=C[C@@H](O)[C@@H]2C=CO[C@@H](O[C@@H]3O[C@H](CO)[C@@H](O)[C@H](O)[C@H]3O)[C@H]12 [Aucubin]	11.7%	–
c1csc(-c2ccc(-c3cccs3)s2)c1 [2,2':5',2''-Terthiophene]	21.7%	–
O=C(O)c1ccc2ccccc2c1O [1-Hydroxy-2-naphthoic acid]	0%	–
COC(=O)c1ccccc1O [Methyl Salicylate]	8.1%	–
COc1cc([C@@H]2Oc3c(O)cc([C@H]4Oc5cc(O)cc(O)c5C(=O)[C@@H]4O)cc3[C@H]2CO)ccc1O [Silychristin]	11.3%	–
O=C(/C=C/c1ccc(O)c(O)c1)O[C@@H]1C[C@](OC(=O)/C=C/c2ccc(O)c(O)c2)(C(=O)O)C[C@@H](O)[C@H]1O [1,3-Dicaffeoylquinic acid]	7.4%	–
CC(C)[C@@H]1CC[C@@H](C)C[C@H]1O [(-)-Menthol]	–	9.8%
C/C(=C\C(=O)CC(C)C(=O)O)[C@H]1C[C@H](O)[C@@]2(C)C3=C(C(=O)C[C@]12C)[C@@]1(C)CCC(=O)C(C)(C)[C@@H]1C[C@@H]3O (stereo partly shown) [Ganoderenic acid A]	41.5%	–

SMILES	229E Inhibition rate	229E Inhibition rate (229E Inhibition rate, 24 h)
C[C@@H]([C@H](C)O)[C@H](N)C(=O)O [(2S,3R,4S)-4-Hydroxyisoleucine]	14%	–
OC[C@H]1OC(O[C@H]2[C@H](O)[C@@H](CO)OC(O[C@H]3[C@H](O)[C@@H](CO)OC(O)[C@@H]3O)[C@@H]2O)[C@H](O)[C@@H](O)[C@@H]1O (stereo partly shown) [Laminaran]	8.9%	–
O=C[C@H](O)[C@@H](O)[C@@H](CO)O[C@@H]1OC[C@@H](O[C@@H]2OC[C@@H](O[C@@H]3OC[C@@H](O[C@@H]4OC[C@@H](O)[C@H](O)[C@H]4O)[C@H](O)[C@H]3O)[C@H](O)[C@H]2O)[C@H](O)[C@H]1O [1,4-b-D-Xylopentaose]	9.4%	–
COc1cc(/C=C/C(=O)O)ccc1O [Ferulic acid (sodium)]	–	36.8%
CC(/C=C/C=C(\C)C(=O)O)=C\C=C\C=C(C)\C=C\C=C(/C)C(=O)O [Crocetin]	–	7.7%
OC[C@H]1O[C@@H](Oc2cc(O)ccc2/C=C/c2cc(O)cc(O)c2)[C@H](O)[C@@H](O)[C@@H]1O [Oxyresveratrol 2-O-β-D-glucopyranoside]	17.2%	–
O=C(Nc1ccccc1)Nc1ccnc(Cl)c1 [Forchlorfenuron]	13.7%	–
COc1ccc(/C=C/C(=O)O)cc1 [4-Methoxycinnamic acid]	–	0%
CCCCC1OC(=O)C2=CCCCC21 (stereo not shown) [Sedanolide]	38.5%	–
C[C@H](CCC(=O)O)[C@H]1CC[C@H]2[C@@H]3C=CC4=CC(=O)CC[C@]4(C)[C@H]3CC[C@]12C [3-Oxo-4,6-choladien-24-oic acid]	23.7%	–
C[C@H](CCC(=O)NCC(=O)O)[C@H]1CC[C@H]2[C@@H]3CC[C@@H]4C[C@H](O)CC[C@]4(C)[C@H]3C[C@H](O)[C@]12C [Glycodeoxycholic acid (monohydrate)]	–	0%
O=c1cc(-c2ccc(O)c(O)c2)oc2cc(O)cc(O)c12 [Luteolin]	0%	–
CN1CC(=O)NC1=N [Creatinine]	19.7%	–
O=c1c(O[C@@H]2O[C@H](CO)[C@@H](O)[C@H](O)[C@H]2O[C@@H]2O[C@H](CO)[C@@H](O)[C@H](O)[C@H]2O)c(-c2ccc(O)cc2)oc2cc(O)cc(O)c12 [Kaempferol 3-O-sophoroside]	45.9%	–
C=C(C)C1CC=C(C)C(O)C1 (mixture of isomers) [Carveol]	14.5%	–
C=C[C@@]1(C)CC[C@H]2C(=CC[C@@H]3[C@]2(C)CCC[C@@]3(C)C(=O)O)C1 [Isopimaric acid]	12.8%	–
C=C1[C@@H](O)[C@]2(O)OC[C@]34[C@H]2[C@@]2(C)[C@H](O)C(=O)C=C(C)[C@@H]2C[C@H]3OC(=O)[C@H](O)[C@@]14O [Eurycomanone]	53.4%	–
COc1cccc(CCc2cc(O)cc(OC)c2)c1 [3'-O-Methylbatatasin III]	10.1%	–
N[C@@H](CS)C(=O)O [L-Cysteine (hydrochloride hydrate)]	–	18.1%

As entered above:
229E Inhibition rate (229E Inhibition rate, 24 h), N[C@@H](CS)C(=O)O [L-Cysteine (hydrochloride hydrate)] is entered as 18.1%
229E Inhibition rate, COc1cccc(CCc2cc(O)cc(OC)c2)c1 [3'-O-Methylbatatasin III] is entered as 10.1%
